In patent US20110262407A1, “TREATMENT WITH ALPHA7 SELECTIVE LIGANDS” (Targacept, Inc., priority 2008, published 2011):
Some results were stated once for a whole list of compounds, not compound by compound.

Molecular target: more than 60 targets
Experiment: receptor profile screen
Format: binding
Conditions: at more than 60 targets

In the case of `c1cncc(C2CCC3CCN2CC3)c1` (stereo not shown) [Compound B, 2-(3-pyridinyl)-1-azabicyclo[3.2.2]nonane], the IC50 is reported as greater than 10 µM.
